This passage reports binding results from publication PMC5703730.

By UniProt entry, the sequences of proteins in these tests, tags left out.
UniProt Q95V55: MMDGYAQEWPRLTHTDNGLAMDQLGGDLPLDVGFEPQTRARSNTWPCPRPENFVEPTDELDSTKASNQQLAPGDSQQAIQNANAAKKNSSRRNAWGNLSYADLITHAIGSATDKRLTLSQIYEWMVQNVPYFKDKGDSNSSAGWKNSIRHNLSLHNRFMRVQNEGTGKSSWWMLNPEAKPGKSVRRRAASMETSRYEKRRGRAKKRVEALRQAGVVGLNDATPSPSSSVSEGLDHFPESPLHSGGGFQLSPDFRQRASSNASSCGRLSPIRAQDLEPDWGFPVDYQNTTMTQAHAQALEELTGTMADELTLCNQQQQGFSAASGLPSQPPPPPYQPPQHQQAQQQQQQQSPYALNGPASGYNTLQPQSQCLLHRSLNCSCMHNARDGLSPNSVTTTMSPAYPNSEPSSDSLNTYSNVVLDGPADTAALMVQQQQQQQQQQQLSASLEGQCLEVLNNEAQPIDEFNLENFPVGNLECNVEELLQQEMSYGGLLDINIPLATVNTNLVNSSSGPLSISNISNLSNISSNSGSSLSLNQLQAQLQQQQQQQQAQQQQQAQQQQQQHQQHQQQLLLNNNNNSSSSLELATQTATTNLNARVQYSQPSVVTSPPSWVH

For test [1], the target named is Drosophila FOXO (dFOXO), endogenous (Drosophila (endogenous in Kc167 cells)) (UniProt Q95V55). The test is described as follows: co-IP; endogenous proteins, nuclear extracts of Kc167 cells; anti-dFOXO antibodies used in pull-down, Dynabeads Protein A; western blot for Kr-h1; rabbit IgG as negative control. On the technique in general: Immunoblotting shows a protein as a band on a membrane.

For test [2] the target is unchanged. The test is described as follows: co-IP; endogenous proteins, cytoplasmic extracts of Kc167 cells; anti-dFOXO antibodies used in pull-down, Dynabeads Protein A; western blot for Kr-h1; rabbit IgG as negative control.

No constants are given. Whether binding was seen depends on the method and setting. Binding seen in cells or lysates may run through a third protein. Some binding calls cover weakened binding; strength is not graded here.

B1: Kruppel homolog 1 (Kr-h1), endogenous (protein, UniProt P08155 1-845)
chain: MTESKNDTKSWAPKQIWIKDVLKKSGTELLDISKSPAKAVAVKKSPAKDSATTKMVYYSANQLLIKTEQSSQAQFCLQVPPPLTATTTSVGLGVPPSGGQQEHFELLQTPQQRQMQLQLQDQHQQEQQQFVSYQLAIQQHQKQQQQQQHESITNAAPTAAPSAQRIKTEPVGGFPASAAVVSQVRKPSASKPQFKCDQCGMTFGSKSAHTSHTKSHSKNQDLSLNGASGAGVAAPVSTAAIELNDAGLPVGIPKSPTIKPLANVAAGADPYQCNVCQKTFAVPARLIRHYRTHTGERPFECEFCHKLFSVKENLQVHRRIHTKERPYKCDVCGRAFEHSGKLHRHMRIHTGERPHKCSVCEKTFIQSGQLVIHMRTHTGEKPYKCPEPGCGKGFTCSKQLKVHSRTHTGEKPYHCDICFRDFGYNHVLKLHRVQHYGSKCYKCTICDETFKNKKEMEAHIKGHANEVPDDEAEAAAASAAASTSAGSSAGSPSLQGVSSNSESSNHSPPSSPPATKKPRQARQPRVSKTVAATLSIPTSSPLSPSSLSSTYSPSASSMASPPPTSAHYLPVQMEADALSRDSGVSSAQPAHSTYADEEPTDLSMQQVQGQLPESTVDYYQAPPSLLELQPQPAGLTINPALLEAASIARRHDDNDDQVQDEDVHAAAWQMMQLCRGHGSLPPTEQPAPSHQPQVPTLHVSDLAANYDDTHEATVLIEHFKRGDLARHGLHKGYAPVPKYESALPNPDVVRRVEAAIGLRSSTESPERSSSPESDSLMMADRNVMTLPLRKRKHYMNKGDDGQVDSEKASGDGTSAAGGAASVGAGDGPGSKVMRMSSVIQFAKAS
With B1, the binding entry in test [1] is recorded as “binds”; in test [2], “no binding (condition: cytoplasmic extracts)”.
